{"sequences": {"note": "Chains of the proteins cited; added tags and fusions are not shown.", "UniProt P53350, whole entry, looked up": "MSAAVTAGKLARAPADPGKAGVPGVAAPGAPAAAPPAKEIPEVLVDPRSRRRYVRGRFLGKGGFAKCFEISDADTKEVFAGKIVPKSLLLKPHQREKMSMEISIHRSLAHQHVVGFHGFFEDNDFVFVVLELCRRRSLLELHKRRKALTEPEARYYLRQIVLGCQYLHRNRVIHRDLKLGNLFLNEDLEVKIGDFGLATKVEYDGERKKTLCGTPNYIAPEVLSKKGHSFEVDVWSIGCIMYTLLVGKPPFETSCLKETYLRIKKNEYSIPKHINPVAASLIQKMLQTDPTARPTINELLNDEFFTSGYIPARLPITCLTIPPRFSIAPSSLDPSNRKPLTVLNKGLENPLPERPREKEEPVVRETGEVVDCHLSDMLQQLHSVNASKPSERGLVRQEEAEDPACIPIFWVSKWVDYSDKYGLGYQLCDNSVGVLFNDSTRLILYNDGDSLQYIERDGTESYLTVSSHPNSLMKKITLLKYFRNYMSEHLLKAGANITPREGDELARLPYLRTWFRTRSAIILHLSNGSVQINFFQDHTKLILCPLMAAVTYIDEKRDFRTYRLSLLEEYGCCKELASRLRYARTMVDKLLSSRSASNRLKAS"}, "source": "PubChem BioAssay AID720504", "about": "(National Center for Advancing Translational Sciences (NCATS), 2013)", "note": "In all, about 360,000 compounds went through this assay and about 10,000 (2.8%) were called active. Inconclusive means that the source gave no clear call. Such entries were picked first, then a sample of the others. Calls follow the shape of the dose curve; as a rule, active = well fitted inhibition curve with a large enough effect; inconclusive = small, poorly fitted or top-dose-only effect; inactive = flat fitted curve, though single readings scatter. A potency beside an inconclusive call is a rough fit, not a confirmed value. % is scaled to controls: 0 for no effect and ±100 for the full control effect; potency is read from the fitted curve at half-maximal effect.", "data": [{"molecular_target": "Serine/threonine-protein kinase PLK1 (Homo sapiens) (UniProt P53350)", "assay": "qHTS for Inhibitors of PLK1-PDB (polo-like kinase 1 - polo-box domain): Primary Screen; also: nearly all actives have a fitted effect of over 65% in size; as to max response, negative = inhibition: series mostly up to about 57 µM", "conditions": "Plk1 PBD binding of FITC phosphopeptide, fluorescence polarization", "values": [{"compound": "OCC[C@@H]1C[C@H](O)[C@@H](O)[C@@]2(CCc3ccccc3O2)O1", "max response, negative = inhibition": "inactive: -13.5%"}, {"compound": "O=c1oc2ccccc2nc1/C=C(\\O)c1ccc(Br)cc1", "Potency": "inconclusive: 21.2 µM [inhibitor, partial curve]"}, {"compound": "COC(=O)C1=C(N)Oc2c(oc(CO)cc2=O)C1c1ccc(F)cc1", "note": "(stereo not drawn)", "Potency": "inconclusive: 33.6 µM [inhibitor, single point]"}, {"compound": "COc1ccc(Nc2c3ccccc3nc3ccccc23)cc1", "max response, negative = inhibition": "inactive: -16.7%"}, {"compound": "O=C(C1CCCO1)N1CCN(Cc2c(O)ccc3ccccc23)CC1", "note": "(stereo not drawn)", "Potency": "active: 11.9 µM"}, {"compound": "COc1cc(/C=N/n2c(COc3ccccc3)n[nH]c2=S)cc(OC)c1OC(C)=O", "Potency": "inconclusive: 26.7 µM [inhibitor, single point]"}, {"compound": "Cc1ccc(NC(=S)N2CCC(c3ccc(C)cc3)C2)cc1", "note": "(stereo not drawn)", "Potency": "active: 21.2 µM"}, {"compound": "Oc1[nH]c2ccccc2c1N=NC(=S)N1CCOCC1", "max response, negative = inhibition": "inconclusive: -30% [inhibitor]"}, {"compound": "COC(=O)Cc1csc(NC(=O)CSc2nnc3ccccn23)n1", "Potency": "active: 16.8 µM"}, {"compound": "COc1ccc(NC(=O)CSc2nnc(-c3cccnc3)o2)c(OC)c1", "Potency": "active: 21.2 µM"}, {"compound": "COCCNC(=O)CSc1nnc(NC(=O)C2CC(=O)N(c3ccccc3OC)C2)s1", "note": "(stereo not drawn)", "max response, negative = inhibition": "inconclusive: -32.2% [inhibitor]"}, {"compound": "COC(=O)Nc1sc2c(c1C(N)=O)CCCCCC2", "Potency": "active: 13.4 µM"}, {"compound": "COc1ccc(Cl)cc1-c1nc(SCC(=O)NC2CC2)n[nH]1", "Potency": "active: 18.9 µM"}, {"compound": "Clc1nssc1=Nc1ccc(Br)cc1", "Potency": "active: 2.12 µM"}, {"compound": "CC(C)C1Cc2[nH][nH]c(=O)c2C(C2CC2)O1", "note": "(stereo not drawn)", "Potency": "inconclusive: 26.7 µM [inhibitor, single point]"}, {"compound": "COc1ccc2nc(SC(C)C(=O)NCC(=O)Nc3ccc(F)c(F)c3F)[nH]c2c1", "note": "(stereo not drawn)", "max response, negative = inhibition": "inactive: -9.63%"}, {"compound": "S=c1[nH]cnc2scc(-c3ccccc3)c12", "max response, negative = inhibition": "inconclusive: -31.1% [inhibitor]"}, {"compound": "CC(C)[C@@H](COc1ccccc1)N1CCN(Cc2ccccc2)CCC1=O", "Potency": "inconclusive: 26.7 µM [inhibitor, single point]"}, {"compound": "Cc1nc2ncccn2c1-c1csc(Nc2cccc(C(=O)O)c2)n1", "Potency": "inconclusive: 29.9 µM [inhibitor, single point]"}, {"compound": "O=C(Nc1cc(N2CCCCC2)ncn1)c1ccccc1", "Potency": "inconclusive: 21.2 µM [inhibitor, partial curve]"}, {"compound": "Cc1ccccc1S(=O)(=O)N1[C@@H](c2ccc(Br)cc2)C(C(=O)O)=CC[C@H]1c1ccc(Cl)cc1", "Potency": "active: 21.2 µM"}, {"compound": "CCCCCCCCN1[C@@H](CC(=O)OCC)c2ccc(C(F)(F)F)cc2S1(=O)=O", "Potency": "inconclusive: 37.7 µM [inhibitor, single point]"}, {"compound": "Cc1ccc(C(C)C)cc1-n1nnc(-c2cccc(Cc3ccc4ccccc4c3)c2)c1C(C)O", "note": "(stereo not drawn)", "max response, negative = inhibition": "inactive: 3.03%"}, {"compound": "CCCc1cc(-c2n[nH]c(=S)n2CC(C)C)cs1", "max response, negative = inhibition": "inactive: -11.9%"}, {"compound": "COc1ccc(OC)c(C(=O)NC2CC(C)(C)Cc3c2cnn3-c2ccccc2)c1", "note": "(stereo not drawn)", "max response, negative = inhibition": "inactive: -15.9%"}, {"compound": "Cn1cnnc1SCC(=O)NN1C(=O)NC(C)(c2ccccc2)C1=O", "note": "(stereo not drawn)", "max response, negative = inhibition": "inactive: 4.89%"}, {"compound": "Oc1ccc(/C=N/N(Cc2ccccc2)c2ccccc2)c(O)c1O", "Potency": "inconclusive: 18.9 µM [inhibitor, partial curve]"}, {"compound": "COc1cc(-c2coc3c(C(=O)NCc4ccccc4)cccc23)ccc1O", "max response, negative = inhibition": "inactive: -7.14%"}, {"compound": "CCOC(=O)c1ccc(NC(=O)c2cc(OC)c(OC)c(OC)c2Br)cc1", "Potency": "inconclusive: 33.6 µM [inhibitor, partial curve]"}, {"compound": "O=C(NCc1ccco1)c1cc([N+](=O)[O-])ccc1N1CCCCC1", "Potency": "active: 23.8 µM"}, {"compound": "CC(NS(=O)(=O)c1ccccc1)C(=O)NCc1ccco1", "note": "(stereo not drawn)", "Potency": "inconclusive: 23.8 µM [inhibitor, partial curve]"}, {"compound": "CCOC(=O)C1CCN(C(=O)COC(=O)CNC(=O)c2ccc(OC)cc2)CC1", "max response, negative = inhibition": "inactive: -8.66%"}, {"compound": "CNCc1nc2ccccc2[nH]1", "Potency": "inconclusive: 26.7 µM [inhibitor, single point]"}, {"compound": "CC(=O)c1ccc(Sc2nnc(C)s2)c([N+](=O)[O-])c1", "max response, negative = inhibition": "inactive: -10.6%"}, {"compound": "CC1=NN(c2nc(-c3ccc(Cl)cc3)cs2)C(=O)C1", "Potency": "inconclusive: 26.7 µM [inhibitor, partial curve]"}, {"compound": "O=C(NCc1ccccc1OC(F)(F)F)C1CCC(=O)N(Cc2ccccn2)C1", "note": "(stereo not drawn)", "Potency": "active: 11.9 µM"}, {"compound": "COc1ccccc1N1CCN(C(=O)c2ccccc2SCC(=O)N2CCCC2)CC1", "Potency": "inconclusive: 29.9 µM [inhibitor, single point]"}, {"compound": "O=C(NC1CC1)c1cccc2c1C(=O)c1ccc(N3CCC(Cc4ccccc4)CC3)cc1S2(=O)=O", "Potency": "inconclusive: 37.7 µM [inhibitor, single point]"}, {"compound": "COc1ccc(/C=N/NC(=O)c2ccccc2O)cc1Cn1cc(Cl)cn1", "Potency": "inconclusive: 23.8 µM [inhibitor, partial curve]"}, {"compound": "COc1ccc(NC(=O)CSc2nnc(-c3cccc(O)c3)o2)cc1", "Potency": "inconclusive: 26.7 µM [inhibitor, single point]"}, {"compound": "COc1ccc(CNC(=S)Nc2ccccc2C)cc1", "Potency": "active: 16.8 µM"}, {"compound": "CCCCN(CCCC)S(=O)(=O)c1ccc(SCC(=O)OCC)c([N+](=O)[O-])c1", "Potency": "inconclusive: 29.9 µM [inhibitor, single point]"}, {"compound": "Cc1ccc(NC(=S)Nc2ccc3[nH]c(=O)[nH]c3c2)cc1C", "max response, negative = inhibition": "inconclusive: -33.5% [inhibitor]"}, {"compound": "COc1ccc(NC(=O)c2c([N+](=O)[O-])c(C(C)(C)C)nn2C)cc1", "max response, negative = inhibition": "inactive: -8.78%"}, {"compound": "CC(C)OC(=O)CSc1nnc2c(n1)[nH]c1ccc(F)cc12", "Potency": "inconclusive: 29.9 µM [inhibitor, partial curve]"}, {"compound": "CC(=O)Nc1ccc(-c2cn3c(n2)SCC3)cc1", "Potency": "inconclusive: 16.8 µM [inhibitor, partial curve]"}, {"compound": "COc1cc(NS(=O)(=O)c2ccc(NC(=O)/C(=C\\c3ccccc3OC)NC(=O)c3ccccc3)cc2)nc(OC)n1", "max response, negative = inhibition": "inactive: -11.6%"}, {"compound": "COc1ccc(C2(C(=O)Nc3ccc(S(N)(=O)=O)cc3)CCCC2)cc1", "Potency": "inconclusive: 11.9 µM [inhibitor, partial curve, poor fit]"}]}]}
